{"source": "PubChem BioAssay AID1508597 (Cure First, 2020)", "aim": "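Knock-downs altering ovarian cancer cell survival with or without PARP inhibitor rucaparib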 (primary screen)", "system": "human ovarian carcinoma lines grown from tumours: OCI-P5x (papillary serous) and OCI-C5x (clear cell)", "knock-down reagent": "siRNA pool against human genes, 1.25 pmol siRNA per well", "time to read-out": "72 h or 96 h, depending on the cell culture", "challenge": "rucaparib 20 µM (about IC30) or vehicle, present until read-out", "rucaparib or vehicle": "Vehicle", "cell line": "OCI-C5x (clear cell)", "measurement": "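Luminescent ATP-based viability assay read 72 or 96 h after transfection, depending on culture, given as normalised percent viability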", "direction": "viability, normalised: higher = more viable cells remaining", "hit rule": "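Active when normalised viability falls below 80 percent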", "meaning of the calls": "active = viability under 80%; inactive = viability 80% or more", "note": "This is an unselected part of the about 2,100 reagents, in one setting of the screen. 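Calls flag viability under 80% in either arm, not effects specific to rucaparib; the reference for percent is not stated.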 Not stated in the record: the 100% reference."}
{"Gene":"MAP2K1 (GeneID 5604)","technical replicate":"1","viability, normalised (%)":47.9,"call":"active"}
{"Gene":"MAP2K1 (GeneID 5604)","technical replicate":"2","viability, normalised (%)":60.7,"call":"active"}
{"Gene":"MAP2K1 (GeneID 5604)","technical replicate":"3","viability, normalised (%)":37.5,"call":"active"}
{"Gene":"FECH (GeneID 2235)","technical replicate":"1","viability, normalised (%)":49,"call":"active"}
{"Gene":"FECH (GeneID 2235)","technical replicate":"2","viability, normalised (%)":70.8,"call":"active"}
{"Gene":"FECH (GeneID 2235)","technical replicate":"3","viability, normalised (%)":68.9,"call":"active"}
{"Gene":"KAT8 (GeneID 84148)","technical replicate":"1","viability, normalised (%)":44.3,"call":"active"}
{"Gene":"KAT8 (GeneID 84148)","technical replicate":"2","viability, normalised (%)":23.3,"call":"active"}
{"Gene":"KAT8 (GeneID 84148)","technical replicate":"3","viability, normalised (%)":32.1,"call":"active"}
{"Gene":"LEF1 (GeneID 51176)","technical replicate":"1","viability, normalised (%)":47.7,"call":"active"}
{"Gene":"LEF1 (GeneID 51176)","technical replicate":"2","viability, normalised (%)":45.8,"call":"active"}
{"Gene":"LEF1 (GeneID 51176)","technical replicate":"3","viability, normalised (%)":63.1,"call":"active"}

In a second layout: entries from further up.
{"Gene": "MAP2K1 (GeneID 5604)", "technical replicate": "1", "viability, normalised (%)": 47.9, "call": "active"}
{"Gene": "MAP2K1 (GeneID 5604)", "technical replicate": "2", "viability, normalised (%)": 60.7, "call": "active"}
